# Experimental data: paper PMC9000022
# Protein sequences, listed by entry. Tags and fused reporters are not part of them.
# UniProt O75821: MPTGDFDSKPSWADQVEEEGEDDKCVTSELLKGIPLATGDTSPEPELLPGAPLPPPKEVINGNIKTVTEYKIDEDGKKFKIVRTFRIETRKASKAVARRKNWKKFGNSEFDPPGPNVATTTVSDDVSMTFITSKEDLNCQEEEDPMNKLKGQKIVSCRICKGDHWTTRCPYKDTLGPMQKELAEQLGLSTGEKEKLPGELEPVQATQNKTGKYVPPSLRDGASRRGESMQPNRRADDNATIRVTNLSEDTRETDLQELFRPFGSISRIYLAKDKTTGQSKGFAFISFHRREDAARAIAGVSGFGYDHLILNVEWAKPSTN
# These are yes or no findings as the source states them, for the method shown. For some assays here: In cells and extracts the contact can be indirect. Some results given as binding are weak or reduced against the parent protein; the word gives no strength.
# Assays:
# [1] = target: T1, chaperonin-containing T-complex protein-1 subunit 3 (CCT3) (human (endogenous in LUAD cell lines)) (UniProt P49368); assay: co-IP; LUAD cells lysed, incubated overnight at 4 °C with anti-CCT3 or EIF3G antibodies, then protein A-agarose 4 h at 4 °C; Western blot
# T1 sequence: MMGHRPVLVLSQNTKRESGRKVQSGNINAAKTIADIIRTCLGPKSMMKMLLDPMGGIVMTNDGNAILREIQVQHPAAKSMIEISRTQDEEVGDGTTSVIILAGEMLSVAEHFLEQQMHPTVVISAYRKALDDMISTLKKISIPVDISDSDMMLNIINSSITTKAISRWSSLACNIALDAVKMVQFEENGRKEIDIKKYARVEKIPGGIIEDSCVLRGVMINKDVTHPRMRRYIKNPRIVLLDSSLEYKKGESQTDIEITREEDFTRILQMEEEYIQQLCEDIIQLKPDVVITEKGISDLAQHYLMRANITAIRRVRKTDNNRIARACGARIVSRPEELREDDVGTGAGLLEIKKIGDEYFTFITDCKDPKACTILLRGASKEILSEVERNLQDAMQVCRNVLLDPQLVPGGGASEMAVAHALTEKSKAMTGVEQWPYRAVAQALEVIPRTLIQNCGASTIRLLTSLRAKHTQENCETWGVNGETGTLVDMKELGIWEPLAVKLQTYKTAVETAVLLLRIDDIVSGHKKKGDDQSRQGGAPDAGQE
# recombinant CCT3 (rCCT3) = target: T2, recombinant CCT3 (rCCT3) (UniProt P49368); assay: pull-down; rEIF3G and rCCT3 each covalently coupled to cyanogen bromide-activated matrix, blocked with glycine, incubated with rCCT3 or rEIF3G overnight at 4 °C; Western blot; both purified
# T2 sequence: T1 sequence
substance,measurement,setting,value
eukaryotic translation initiation factor 3 subunit G (EIF3G) (from UniProt O75821 1-320),binding,[1],binds
recombinant EIF3G (rEIF3G) (from UniProt O75821 1-320),binding,recombinant CCT3 (rCCT3),binds
